Publication PMC8928223, “The Collagen Receptor Discoidin Domain Receptor 1b Enhances Integrin β1-Mediated Cell Migration by Interacting With Talin and Promoting Rac1 Activation” (Frontiers in Cell and Developmental Biology, 2022)
No constants are given. Whether binding was seen depends on the method and setting. Some results given as binding are weak or reduced against the parent protein; the word gives no strength.

Amino acid sequences for entries named in this document (tags omitted). Residues count along the entry.
UniProt P26039, residues 1-433: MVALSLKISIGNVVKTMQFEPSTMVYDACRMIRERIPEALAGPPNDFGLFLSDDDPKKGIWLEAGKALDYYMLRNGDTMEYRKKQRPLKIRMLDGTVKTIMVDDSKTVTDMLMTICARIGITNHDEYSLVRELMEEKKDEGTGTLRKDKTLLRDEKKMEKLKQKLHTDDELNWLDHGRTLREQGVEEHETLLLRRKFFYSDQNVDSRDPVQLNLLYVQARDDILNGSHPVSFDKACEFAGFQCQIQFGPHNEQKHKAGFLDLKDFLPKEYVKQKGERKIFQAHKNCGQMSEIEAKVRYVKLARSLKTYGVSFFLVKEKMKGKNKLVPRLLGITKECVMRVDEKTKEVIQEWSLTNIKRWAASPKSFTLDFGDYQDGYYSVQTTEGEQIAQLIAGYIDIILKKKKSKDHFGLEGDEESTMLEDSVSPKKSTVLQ

Biological target: talin head domain (THD, a. a. 1-433), HIS-tagged (UniProt P26039)
Test: ELISA; solid phase binding assay: talin head domain (3 µg/ml) coated on Nunc maxisorp 96 well plates; DDR1 cytoplasmic constructs added at increasing concentrations in 50 mM Tris pH 7.5, 150 mM NaCl, 0.1% BSA, 2 mM DTT, 0.1% Tween 20, overnight at 4°C; bound DDR1 detected with anti-DDR1 antibody; one site saturation fit; both purified

binding: binds
B1: DDR1b cytoplasmic domain (domain or fragment)
chain: WRLHWRRLLSKAERRVLEEELTVHLSVPGDTILINNRPGPREPPPYQEPRPRGNPPHSAPCVPNGSALLLSNPAYRLLLATYARPPRGPGPPTPAWAKPTNTQAYSGDYMEPEKPGAPLLPPPPQNSVPHYAEADIVTLQGVTGGNTYAVPALPPGAVGDGPPRVDFPRSRLRFKEKLGEGQFGEVHLCEVDSPQDLVSLDFPLNVRKGHPLLVAVKILRPDATKNARNDFLKEVKIMSRLKDPNIIRLLGVCVQDDPLCMITDYMENGDLNQFLSAHQLEDKAAEGAPGDGQAAQGPTISYPMLLHVAAQIASGMRYLATLNFVHRDLATRNCLVGENFTIKIADFGMSRNLYAGDYYRVQGRAVLPIRWMAWECILMGKFTTASDVWAFGVTLWEVLMLCRAQPFGQLTDEQVIENAGEFFRDQGRQVYLSRPPACPQGLYELMLRCWSRESEQRPPFSQLHRFLAEDALNTV
